Laboratory results published in publication doi:10.1101/359182.

Chains of the proteins cited; added tags and fusions are not shown. Lines headed by an entry give the natural chain unless they say otherwise; changes in a name come on top.
UniProt Q94JM3: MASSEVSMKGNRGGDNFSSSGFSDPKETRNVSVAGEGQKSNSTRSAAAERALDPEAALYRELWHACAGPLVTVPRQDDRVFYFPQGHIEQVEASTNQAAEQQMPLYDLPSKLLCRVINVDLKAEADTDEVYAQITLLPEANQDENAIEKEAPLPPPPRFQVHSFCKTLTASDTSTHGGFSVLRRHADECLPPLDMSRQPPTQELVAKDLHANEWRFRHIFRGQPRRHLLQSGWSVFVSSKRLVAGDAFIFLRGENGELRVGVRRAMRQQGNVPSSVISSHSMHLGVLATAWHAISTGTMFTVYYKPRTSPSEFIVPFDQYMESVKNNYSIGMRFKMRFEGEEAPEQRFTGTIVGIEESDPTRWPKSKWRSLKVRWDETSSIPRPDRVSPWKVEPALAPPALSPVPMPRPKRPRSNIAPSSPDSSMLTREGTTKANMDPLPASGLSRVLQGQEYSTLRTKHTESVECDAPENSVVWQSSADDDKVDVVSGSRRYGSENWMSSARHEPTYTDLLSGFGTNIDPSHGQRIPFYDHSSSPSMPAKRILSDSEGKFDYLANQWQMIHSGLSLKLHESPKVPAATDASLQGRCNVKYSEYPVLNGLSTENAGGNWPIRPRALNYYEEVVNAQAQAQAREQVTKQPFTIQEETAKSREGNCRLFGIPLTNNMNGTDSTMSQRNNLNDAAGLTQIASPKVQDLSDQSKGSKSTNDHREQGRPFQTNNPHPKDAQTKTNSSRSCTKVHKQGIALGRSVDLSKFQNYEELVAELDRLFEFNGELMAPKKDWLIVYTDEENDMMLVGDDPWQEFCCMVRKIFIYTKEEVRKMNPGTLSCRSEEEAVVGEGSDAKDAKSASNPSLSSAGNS

What was measured:
MP (ARF5/Monopteros) = molecular target: T1, MP (ARF5/Monopteros) (UniProt P93024); test: EMSA
T1 sequence (looked up, limits assumed): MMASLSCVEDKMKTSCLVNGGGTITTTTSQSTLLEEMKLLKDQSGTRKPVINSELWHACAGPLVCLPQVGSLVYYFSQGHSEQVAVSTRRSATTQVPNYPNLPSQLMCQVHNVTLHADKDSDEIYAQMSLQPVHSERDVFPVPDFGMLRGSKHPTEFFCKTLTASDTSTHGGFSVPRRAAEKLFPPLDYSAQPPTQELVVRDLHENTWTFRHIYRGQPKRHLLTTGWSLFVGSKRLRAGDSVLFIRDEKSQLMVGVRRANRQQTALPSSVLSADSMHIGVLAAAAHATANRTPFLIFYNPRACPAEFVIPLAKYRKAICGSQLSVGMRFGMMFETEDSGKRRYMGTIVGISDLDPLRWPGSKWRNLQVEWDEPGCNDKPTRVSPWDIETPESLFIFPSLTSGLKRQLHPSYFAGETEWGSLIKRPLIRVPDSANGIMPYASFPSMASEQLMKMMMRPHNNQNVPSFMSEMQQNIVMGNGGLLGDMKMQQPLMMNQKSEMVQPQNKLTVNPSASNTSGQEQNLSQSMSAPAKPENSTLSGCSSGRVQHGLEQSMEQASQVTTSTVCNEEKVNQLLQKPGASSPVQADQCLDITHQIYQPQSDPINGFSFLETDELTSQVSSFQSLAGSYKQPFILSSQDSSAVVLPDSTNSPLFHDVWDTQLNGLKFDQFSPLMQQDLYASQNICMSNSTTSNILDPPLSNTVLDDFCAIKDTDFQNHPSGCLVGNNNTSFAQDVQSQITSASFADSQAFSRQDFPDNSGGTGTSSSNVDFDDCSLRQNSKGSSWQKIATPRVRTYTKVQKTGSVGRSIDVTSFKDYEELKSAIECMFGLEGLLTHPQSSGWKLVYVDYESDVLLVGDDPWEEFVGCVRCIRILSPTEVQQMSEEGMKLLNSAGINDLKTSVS

ARF2 = ARF2 (UniProt Q94JM3); test: EMSA

Sequence | binding result (MP (ARF5/Monopteros)) | binding result (ARF2)
GATGCAGTCATGTGCCGACATGTCGGCATGTGCTCACAT (double strand) [IR0] | binds more weakly | 
GCAAACGGGTGTCATTCATGTGAATGACAACCGCATC (double strand) [ER8 WC/WC] | no binding | no binding
GCAAACTTATGTCTCTCATGTGACCGACAACCGCATC (double strand) [ER8 C/C] | binds | binds
GCAAACTTATGTCTCTCATGTGACCGACCACCGCATC (double strand) [ER8 C/NC] | binds | binds

For at least one entry, the source does not settle the construct or the ends of the probe. No signal at the amounts used counts as a negative. At least one verdict was read from the data and is not stated in words by the source. For some of these results: Protein sequences can lack the tags named with them. For some of these results: The comparison behind a weaker result is the experiment's own reference, which may not be listed here.
